# Assay: peptide made by a vendor
# Settings: whole synthesis, RP-HPLC
substance,measurement,setting,value
MAKRRKKAKKKAKKAKKRRRRR-NH2,final HPLC purity,T1 r3,95.44%
same,final HPLC purity,run 1,greater than 95%

# Source: PMC10847306 (Frontiers in Cellular and Infection Microbiology, 2024)
